# Screening data, single-dose tests

Protein sequences, listed by entry. Tags and fused reporters are not part of them. Residues count along the entry.
UniProt Q8IDJ8, 1-583: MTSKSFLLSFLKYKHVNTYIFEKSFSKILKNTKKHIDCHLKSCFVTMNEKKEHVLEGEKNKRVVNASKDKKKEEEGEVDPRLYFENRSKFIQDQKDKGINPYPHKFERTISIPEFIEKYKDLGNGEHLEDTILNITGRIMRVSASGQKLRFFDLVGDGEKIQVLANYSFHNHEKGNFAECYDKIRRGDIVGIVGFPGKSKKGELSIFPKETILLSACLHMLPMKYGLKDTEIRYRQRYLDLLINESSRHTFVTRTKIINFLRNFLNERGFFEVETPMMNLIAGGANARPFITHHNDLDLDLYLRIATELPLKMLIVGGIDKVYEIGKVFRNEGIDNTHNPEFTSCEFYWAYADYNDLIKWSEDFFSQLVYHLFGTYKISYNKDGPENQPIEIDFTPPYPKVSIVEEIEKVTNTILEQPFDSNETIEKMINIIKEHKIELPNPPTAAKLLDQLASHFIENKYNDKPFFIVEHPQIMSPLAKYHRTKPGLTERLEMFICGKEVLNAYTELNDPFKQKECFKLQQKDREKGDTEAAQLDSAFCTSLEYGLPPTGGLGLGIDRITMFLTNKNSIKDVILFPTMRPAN
UniProt P9WFT3, whole entry: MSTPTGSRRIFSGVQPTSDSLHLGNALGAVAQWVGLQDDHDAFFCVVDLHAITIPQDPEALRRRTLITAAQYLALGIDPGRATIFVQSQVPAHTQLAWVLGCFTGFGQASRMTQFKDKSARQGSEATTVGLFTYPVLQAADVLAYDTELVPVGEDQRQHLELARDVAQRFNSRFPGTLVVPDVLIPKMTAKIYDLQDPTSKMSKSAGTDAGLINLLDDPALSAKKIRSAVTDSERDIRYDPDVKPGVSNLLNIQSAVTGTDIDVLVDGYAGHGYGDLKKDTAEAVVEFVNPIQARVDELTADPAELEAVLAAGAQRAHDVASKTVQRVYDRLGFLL

PfKRS1: 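Enzyme assay of the cytosolic lysyl-tRNA synthetase in 384-well plates, read by luminescence. Target: Lysine-tRNA ligase, Plasmodium falciparum 3D7 (UniProt Q8IDJ8). Concentration: 30 µM. Direction is inferred from only a few compounds that gave an IC50; most scored high, so higher reads as stronger inhibition. Of about 69,000 compounds tested this way, about 49 (0.071%) reached 50% or more in at least one test.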
MtTrpRS: 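Enzyme assay of tryptophanyl-tRNA synthetase; the read-out is not stated. Target: Tryptophan-tRNA ligase, Mycobacterium tuberculosis (UniProt P9WFT3). Tested at 10 µM. Higher most likely means stronger inhibition; the record gives no direction and few retests gave an IC50. Size under these conditions: about 65,000 compounds, about 64 of them at 50% or above in at least one test.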
Leishmania in macrophages: 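Cell assay of Leishmania donovani living inside macrophages; the read-out is not stated. Tested at 30 µM. The record gives no direction; compounds that gave an IC50 in retests scored well above the rest, so higher reads as stronger inhibition. About 69,000 compounds were tested under these conditions; 1.5% (about 1,000) showed 50% or more at least once.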

Each number is a percent effect as filed. The controls that fix the scale are not given in the record; negative values are as filed. This is an unselected part of the compounds tested. A dash means the value is not listed here; it may have been measured.

Cc1cc(CN2CCN(C(=O)NCc3nc(C)cs3)CC2)on1 read PfKRS1: 7.852%; MtTrpRS: 2.047%; Leishmania in macrophages: 12.05%.
CCN1CCn2c(C)cnc2C12CCN(C(=O)COC)CC2 read PfKRS1: 1.665%; MtTrpRS: 3.483%.
CCOCC1CN(C(=O)Cc2ccccn2)Cc2cn(CC)nc21 (stereo not shown) read PfKRS1: 6.939%; MtTrpRS: -1.395%; Leishmania in macrophages: 9.504%.
CCS(=O)(=O)N1CC[C@H]2O[C@H](c3nc(C)no3)CC[C@H]21 read PfKRS1: 2.991%; MtTrpRS: 0.1383%.
O=C(Cc1cccnc1)N1CCCC2(CCN(C3CCOCC3)C2)C1 (stereo not shown) read PfKRS1: 4.593%; MtTrpRS: 8.112%.
COC(=O)Cn1ccc(=O)c2ccc(OC)cc21 read PfKRS1: -0.7182%; MtTrpRS: 1.651%; Leishmania in macrophages: -20.43%.
COc1ccc(OC)c(CN(C)c2ncc(S(N)(=O)=O)s2)c1 read PfKRS1: 4.266%; MtTrpRS: -0.7261%; Leishmania in macrophages: 13.02%.
CCn1nnc2c1C(COCCN(C)C)CN(Cc1ccco1)C2.O=C(O)C(F)(F)F.O=C(O)C(F)(F)F (stereo not shown) read Leishmania in macrophages: 14.22%.
O=C(O)C(F)(F)F.O=C(O)C(F)(F)F.[H][C@]12CCN(c3ncc(C)cn3)[C@@]1([H])CC[C@@H](COCc1ccccn1)O2 read Leishmania in macrophages: -0.9256%.
CCN1CCC2(CC1)CC(NC(=O)c1csnn1)c1ccccc1O2.O=C(O)C(F)(F)F (stereo not shown) read Leishmania in macrophages: 24.17%.
O=C(O)CSc1nnc(-c2ccn[nH]2)n1-c1ccccc1Cl read PfKRS1: 5.487%; MtTrpRS: 0%; Leishmania in macrophages: 20.46%.
CC(=O)NCCNC(=O)C1(N2CCCCC2)Cc2ccccc2C1 read PfKRS1: 2.733%; MtTrpRS: -0.7843%; Leishmania in macrophages: -3.03%.
COc1c(CC2CC(CO)=NO2)c(Br)c2c(c1OC)OCO2 (stereo not shown) read PfKRS1: 8.076%; MtTrpRS: 3.437%; Leishmania in macrophages: 14.73%.
[H][C@]12CC[C@]([H])(CN(Cc3ccccc3)C1)N(Cc1scnc1C)C2 read Leishmania in macrophages: -7.937%.
O=C1CC(NCc2cnc(-c3cccs3)nc2)CN1c1ccccc1 (stereo not shown) read PfKRS1: 6.077%; MtTrpRS: 2.275%; Leishmania in macrophages: 14.83%.
COC(CNC(=O)c1cn(C)nn1)c1ccc(C)s1 (stereo not shown) read PfKRS1: 4.398%; MtTrpRS: 2.445%; Leishmania in macrophages: 3.246%.
CCc1noc(C(C)N(C)CC(=O)Nc2cccc(C)n2)n1 (stereo not shown) read PfKRS1: -2.237%; MtTrpRS: 4.918%; Leishmania in macrophages: 25.95%.
COc1cc(OC)c(C2CC(=O)Oc3cc(C)[nH]c(=O)c32)c(OC)c1 (stereo not shown) read PfKRS1: 1.725%; MtTrpRS: 1.242%; Leishmania in macrophages: -12.91%.
COc1cc(NC(=O)NCc2nccn2C)ccc1Br read PfKRS1: 7.136%; MtTrpRS: 7.169%; Leishmania in macrophages: -2.75%.
O=C(Nc1cccc(F)c1)N1CCN(Cc2noc(C3CC3)n2)CC1 read PfKRS1: 6.635%; MtTrpRS: -2.414%; Leishmania in macrophages: 16.75%.
CCc1ncc(C(=O)N2CCOCC2c2c(C)n[nH]c2C)s1 (stereo not shown) read PfKRS1: 1.032%; MtTrpRS: -0.5197%; Leishmania in macrophages: 2.927%.
NCC1[C@H]2CN(Cc3cccc(Cl)c3)C[C@@H]12 (stereo partly shown) read PfKRS1: 2.184%; MtTrpRS: -0.5814%.
Cn1cc(-c2ncc3c(c2C(=O)O)CCN(Cc2ccco2)C3)cn1.O=C(O)C(F)(F)F read Leishmania in macrophages: 10.3%.
[H][C@@]12CCCC[C@]1(O)CCN(C(=O)c1ccc3c(ccn3C)c1)C2 read Leishmania in macrophages: -14.44%.
CC(C)=CCN1CCC(c2nnc(CN3CCN(C)CC3)n2C)CC1 read PfKRS1: 2.106%; MtTrpRS: 0.5439%; Leishmania in macrophages: 50.84%.
CC(C)Cn1cc(NC(=O)N2CCCC2)cn1 read PfKRS1: 2.215%; MtTrpRS: -1.664%; Leishmania in macrophages: 0.6116%.
Cn1cnc(C(=O)N2CC3(CCN(S(=O)(=O)c4ccccc4)C3)C2)c1 read PfKRS1: 8.08%; MtTrpRS: -2.562%; Leishmania in macrophages: 6.556%.
CCCc1nc(N[C@H]2COC[C@@H]2N2CCCCC2)c2cnn(C)c2n1 read PfKRS1: 3.416%; MtTrpRS: -3.451%; Leishmania in macrophages: 10.55%.
COc1ccc(CCNC(=O)NCC(O)c2cccc(F)c2)cc1 (stereo not shown) read PfKRS1: -3.003%; MtTrpRS: 21.72%; Leishmania in macrophages: -15.22%.
CC(NCCN1CCN(C(=O)C2CCCC2)CC1)c1cnn(C)c1 (stereo not shown) read PfKRS1: 6.821%; MtTrpRS: -5.623%; Leishmania in macrophages: 5.751%.
Cc1ccc(C(=O)NC2CCN(Cc3nc(CC(C)C)no3)CC2)s1 read PfKRS1: 3.135%; MtTrpRS: -4.842%; Leishmania in macrophages: 20.18%.
COc1ccnc(N2CCN(C(=O)CN3CCOCC3)CC2)n1 read PfKRS1: -1.151%; MtTrpRS: 17.5%; Leishmania in macrophages: -18.76%.

4 of the entries, repeated:

SMILES	PfKRS1	MtTrpRS	Leishmania in macrophages
COc1ccnc(N2CCN(C(=O)CN3CCOCC3)CC2)n1	-1.151	17.5	-18.76
CCOCC1CN(C(=O)Cc2ccccn2)Cc2cn(CC)nc21 (stereo not shown)	6.939	-1.395	9.504
COC(CNC(=O)c1cn(C)nn1)c1ccc(C)s1 (stereo not shown)	4.398	2.445	3.246
CCN1CCn2c(C)cnc2C12CCN(C(=O)COC)CC2	1.665	3.483	-

Measurements from “University of Dundee, Small-Polar-MMV Screening Library” (2021), ChEMBL document CHEMBL3988442.